According to PubChem BioAssay AID1259354 (Paczesny and Yang Labs, IUPUI and University of Michigan, 2018):
Screen size: about 78,000 compounds; about 1,800 (2.3%) were called active. This list was built around the results that the source calls inconclusive (neither active nor inactive); the mix of calls is not that of the screen. Cut-off read from the data, not from the text of the source: active = inhibition above about 30%; inconclusive = mostly about 10% to 28%; inactive = weaker than that.

By UniProt entry, the sequences of proteins in these tests, tags left out. Where a name states a change or a piece, a line headed by the entry shows the natural chain unless it says otherwise.
UniProt Q01638: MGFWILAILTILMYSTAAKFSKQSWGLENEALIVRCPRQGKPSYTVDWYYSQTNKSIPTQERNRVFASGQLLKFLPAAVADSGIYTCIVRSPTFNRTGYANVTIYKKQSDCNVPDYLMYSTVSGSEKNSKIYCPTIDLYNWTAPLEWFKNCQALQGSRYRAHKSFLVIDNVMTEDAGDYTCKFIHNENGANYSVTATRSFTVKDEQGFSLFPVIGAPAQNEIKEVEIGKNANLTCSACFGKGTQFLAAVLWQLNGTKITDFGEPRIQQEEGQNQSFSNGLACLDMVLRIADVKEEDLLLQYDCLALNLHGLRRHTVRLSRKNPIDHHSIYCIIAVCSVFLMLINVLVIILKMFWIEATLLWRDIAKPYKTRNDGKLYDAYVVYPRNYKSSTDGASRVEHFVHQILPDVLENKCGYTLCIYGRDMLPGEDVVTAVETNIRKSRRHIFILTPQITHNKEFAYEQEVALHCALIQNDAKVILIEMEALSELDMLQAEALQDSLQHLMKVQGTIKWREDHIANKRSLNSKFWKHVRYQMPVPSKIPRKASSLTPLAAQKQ

These compounds were tested against Interleukin-1 receptor-like 1 (Homo sapiens) (UniProt Q01638) (assay: blocks human ST2 binding to IL-33, primary screen, biochemical, AlphaLISA (AID 1259354)). Conditions: AlphaLISA ST2-Fc/biotin-IL-33 interaction, 1 h; at 17 µM, hits give high values.
With `CCOC(=O)c1sc(-c2ccccc2)cc1NC(=O)c1cc(=O)c2ccccc2o1` the inhibition was “inactive”. In the case of `NS(=O)(=O)c1ccc(F)cc1`, the inhibition is reported as “inactive”. For `CC(=O)Oc1cccc(N2C(=O)C3C(C2=O)C2(C)C=CC3(C)O2)c1` (centres undefined), the inhibition was inconclusive: 14%. With `COc1cccc(CN2CCN(C(=O)c3cc(OC)c(OC)c(OC)c3)CC2)c1OC` the inhibition was “inactive”. `COc1ccccc1NC(=O)C1=C(C)Nc2nc3ccccc3n2C1c1ccc(C)cc1` (centres undefined) was tested, and the inhibition was “inactive”. In the case of `CN(Cc1ccc2nonc2c1)c1nccc(CCC(F)(F)F)n1`, the inhibition is reported as inconclusive: 16%. In the case of `NC(=O)CNC(=O)C1=C[C@@H](NS(=O)(=O)c2cccc(C(F)(F)F)c2)[C@@H](O)[C@H](O)C1`, the inhibition is reported as inconclusive: 12%. `COc1cc(NC2CCCN(C(=O)c3ccco3)C2)ncn1` (centres undefined) was tested, and the inhibition was inconclusive: 12%. `COc1ccc(CN2CCN(Cc3cccn3-c3ncccn3)CC2CCO)c(C)c1C` (centres undefined) was tested, and the inhibition was inconclusive: 16%. In the case of `Clc1ccccc1N1CCN(Cc2ccsc2)CC1`, the inhibition is reported as “inactive”. With `Cc1nnc(C)c2c(C)n(C(C)c3ccccc3)c(C)c12` (centres undefined) the inhibition was active: 47%. For `O=C(NS(=O)(=O)c1ccc(NS(=O)(=O)c2cccs2)cc1)c1ccccc1`, the inhibition was “inactive”. In the case of `NC(=O)c1c(NC(=O)CCCn2cnc([N+](=O)[O-])n2)sc2c1CCCC2`, the inhibition is reported as inconclusive: 18%. For `COc1ccccc1OCC(=O)N1CCc2c(cnc(C)c2CNC(=O)Cc2ccsc2)C1`, the inhibition was “inactive”. `CCN(CC1CCCN(CCc2cccc(F)c2)C1)C(=O)C1=NN(C)C(=O)CC1` (centres undefined) was tested, and the inhibition was “inactive”. For `Cn1ccnc1CN(CCO)Cc1ccc(-c2ccc(Cl)cc2F)o1`, the inhibition was “inactive”. With `c1ccc(Cc2n[nH]c(CSc3ccccc3)n2)cc1` the inhibition was “inactive”. With `c1ccc2sc([C@H]3CCN(Cc4ccc5c(c4)OCO5)C3)nc2c1` the inhibition was inconclusive: 10%. `c1ccc(-n2nnnc2N2CCCC(Nc3ccc4c(c3)OCCO4)C2)cc1` (centres undefined) was tested, and the inhibition was inconclusive: 20%. For `O=C(Cn1c2ccccc2c(=O)c2ccccc21)Nc1ccccc1Cl`, the inhibition was “inactive”. For `O=[N+]([O-])c1cccc(CN2CCN(Cc3ccc4c(c3)OCO4)CC2)c1`, the inhibition was “inactive”. `N#Cc1ccccc1S(=O)(=O)N1C[C@@H]2C[C@H](C1)c1c(-c3ccc(OC(F)(F)F)cc3)ccc(=O)n1C2` was tested, and the inhibition was inconclusive: 13%. `Cc1c(N=Cc2ccc(F)cc2)c(=O)n(-c2ccccc2)n1C` was tested, and the inhibition was “inactive”. In the case of `CC1(C(=O)NC2CCCC2)COc2c(oc3ccccc23)C(=O)N1Cc1cccc(F)c1` (centres undefined), the inhibition is reported as “inactive”. `COC(=O)c1cc2n(n1)CCN(S(=O)(=O)c1ccc(C)cc1OC)C2` was tested, and the inhibition was inconclusive: 18%. `CC(=O)[C@@]1(O)CC[C@H]2[C@@H]3CCC4=CC(=O)CC[C@]4(C)[C@H]3CC[C@@]21C` was tested, and the inhibition was inconclusive: 15%. `Cc1cccc(/C=C2\NC(=O)N(Cc3ccc(Cl)cc3)C2=O)c1` was tested, and the inhibition was “inactive”. For `CCC1CN(Cc2noc(C)n2)CCC(=O)N1Cc1ccccc1` (centres undefined), the inhibition was “inactive”. For `COc1ccc(C2=NN3C(C2)c2cc(OC)ccc2OC3c2cccc([N+](=O)[O-])c2)cc1` (centres undefined), the inhibition was inconclusive: 17%. `COc1cc(Br)cc(/C=C2\NC(=O)N(Cc3ccc(Cl)cc3)C2=O)c1O` was tested, and the inhibition was inconclusive: 17%. In the case of `CCc1c(C)sc(NC(=O)c2ccc(C(C)C)cc2)c1C(N)=O`, the inhibition is reported as inconclusive: 15%. For `O=C1C=C(c2cccs2)C[C@H](c2ccccc2)[C@H]1n1nnc([N+](=O)[O-])n1`, the inhibition was active: 41%. `CCOC(=O)C1(Cc2ccccc2C(F)(F)F)CCN(C(=O)C2CCCO2)CC1` (centres undefined) was tested, and the inhibition was inconclusive: 13%. With `CCCn1cnc2cc(NCc3ccc(Br)cc3)ccc21` the inhibition was inconclusive: 14%. `COc1ccc(C(=O)NC(O)C(Cl)(Cl)Cl)cc1` (centres undefined) was tested, and the inhibition was “inactive”. With `COc1ccc(CNC(=O)C2CC(=O)N(c3ccc(F)cc3)C2)cc1` (centres undefined) the inhibition was inconclusive: 23%. With `Cc1cc2ncn(S(=O)(=O)c3ccc(Br)cc3)c2cc1C` the inhibition was inconclusive: 19%. `Cc1cc(C)n(CC(=O)NC2CC(=O)N(CCCc3ccccc3)C2)n1` (centres undefined) was tested, and the inhibition was “inactive”. For `C=CCN(Cc1cccc(OCC)c1)C(=O)C1CCOCC1`, the inhibition was inconclusive: 15%. In the case of `O=C1CCc2cc(-c3cccc4ccnn34)ccc21`, the inhibition is reported as inconclusive: 12%. `COCCCn1ccnc1-c1cccc2ccccc12` was tested, and the inhibition was inconclusive: 11%. In the case of `Cn1c(=O)c(CN(Cc2ccsc2)Cc2ccco2)cc2ccccc21`, the inhibition is reported as “inactive”. For `COc1c(O)cc2c(=O)c3c(O)cc(O)c(CC=C(C)C)c3oc2c1CC=C(C)C`, the inhibition was inconclusive: 12%. With `Cc1ccc(C(NC(=O)c2cnn3c2CCCC3)c2ccncc2)cc1` (centres undefined) the inhibition was inconclusive: 10%. `O=C(CCC1CCN(Cc2cccc3c2OCO3)CC1)Nc1ccccc1Cl` was tested, and the inhibition was inconclusive: 12%. In the case of `O=C1NCCN(C2Cc3ccccc3C2)C1CC(=O)N1CC=C(c2ccccc2)CC1` (centres undefined), the inhibition is reported as inconclusive: 17%. `COc1cccc(NC(=O)CCC2CCN(Cc3nc4ccccc4n3C)CC2)c1` was tested, and the inhibition was “inactive”. For `Cc1[nH]c2c(c1CC(Cl)(Cl)Cl)C(=O)CC(C)(C)C2`, the inhibition was “inactive”. With `Oc1ccc(Br)cc1C=Nc1ccc(-c2nc3ncccc3o2)cc1` the inhibition was inconclusive: 28%. With `CN(Cc1nc(COc2ccccc2)no1)CC1COc2ccccc2O1` (centres undefined) the inhibition was inconclusive: 18%. With `CCC(CO)NCC(O)Cn1c(C)c(C)c2ccccc21` (centres undefined) the inhibition was inconclusive: 23%. With `COc1ccc(-c2ccnc(N[C@H]3CO[C@H]4[C@@H]3OC[C@@H]4NC(=O)Nc3ccccc3)n2)cc1` the inhibition was inconclusive: 24%. For `Cc1cc(COc2ccccc2)oc1C(=O)N1CCCn2cncc2C1`, the inhibition was inconclusive: 13%. `O=C(O)CN1C(=O)c2cc(Cl)c(Cl)cc2C1=O` was tested, and the inhibition was inconclusive: 20%. With `CNC(=O)C(=O)Nc1ccc(Cl)c(Cl)c1` the inhibition was inconclusive: 15%. With `O=C(NCCSc1c(-c2ccc(Cl)cc2)[nH]c2ccccc12)c1ccco1` the inhibition was inconclusive: 10%. With `COC(=O)Cc1cc(C2CCN(C(=O)c3cccnc3SC)CC2)n[nH]1` the inhibition was “inactive”. `Cc1ccc(NC(=O)NCCc2nc3cccnc3n2-c2ccccc2)cc1C` was tested, and the inhibition was inconclusive: 10%. In the case of `C=CCNC(=O)c1ccc2c(c1)N(Cc1ccc(F)cc1)C(=O)CS2`, the inhibition is reported as “inactive”. `CN(C)c1ccc(C(=O)N[C@H]2CO[C@H]3[C@@H]2OC[C@@H]3n2nnnc2Oc2ccc(-n3ccnc3)cc2)cc1` was tested, and the inhibition was “inactive”. With `CN(C)c1nc(-c2cccnc2)nc2c1CCN(C(=O)[C@@H](N)c1ccccc1)C2` the inhibition was inconclusive: 21%. For `Cc1c(C=O)c(C=O)c(C)n1Cc1ccc(C(=O)O)cc1`, the inhibition was inconclusive: 10%. With `CC(=O)NC(=O)c1cc2ccccc2oc1=Nc1ccccc1F` the inhibition was inconclusive: 11%. `Cc1nn(CCCC(=O)NCc2cccs2)c(C)c1[N+](=O)[O-]` was tested, and the inhibition was inconclusive: 10%. In the case of `COCC(=O)Nc1nc2c(s1)C[C@]1(C)CC[C@@H]3[C@H](OC(=O)[C@H]3C)[C@H]1[C@@H]2C`, the inhibition is reported as inconclusive: 14%. `CC1CCCCC1NC(=O)CN1C(=O)CSc2ccc(S(=O)(=O)N3CCCCC3)cc21` (centres undefined) was tested, and the inhibition was inconclusive: 10%. With `COc1ccc(/C=C(/NC(=O)c2cccs2)C(=O)NC(C)(C)C)cc1OC` the inhibition was “inactive”. In the case of `C=CCn1c(SCc2nc3ccccc3[nH]2)nnc1-c1ccco1`, the inhibition is reported as inconclusive: 15%. In the case of `CC(C)Cc1cc(C(=O)N(C)Cc2n[nH]c3c2CCCC3)n(C)n1`, the inhibition is reported as inconclusive: 17%. For `COc1ccc(C2=C/C(=C\c3ccc(C)o3)C(=O)O2)cc1`, the inhibition was “inactive”. In the case of `Cc1c(-c2nccn2CCn2ccnc2)oc2ccccc12`, the inhibition is reported as “inactive”. In the case of `Ic1ccc(OCCCCn2ccnc2)cc1`, the inhibition is reported as inconclusive: 20%. In the case of `O=C(/C=C1\Sc2ccccc2N(Cc2ccc(F)cc2)C1=O)NCc1ccccc1Cl`, the inhibition is reported as inconclusive: 11%. `Cc1cccc(-c2nc3cc([N+](=O)[O-])ccc3o2)c1` was tested, and the inhibition was “inactive”. For `COc1ccc2ccccc2c1CNC1CCN(c2ccc(C(=O)N3CCOCC3)cc2)CC1`, the inhibition was inconclusive: 22%. `CC1CCC(C(=O)NC(C(=O)NCc2ccccn2)C(C)C)CC1` (centres undefined) was tested, and the inhibition was inconclusive: 10%. In the case of `Cc1cc(N2CC[C@@H](N3CCOCC3)[C@H](O)C2)nc(-c2ccccc2)n1`, the inhibition is reported as “inactive”. For `CCOc1ccc(S(=O)(=O)NCc2ccco2)c2cccnc12`, the inhibition was “inactive”. For `Cc1cc(C=O)c(C)n1-c1ccc(Br)cc1F`, the inhibition was inconclusive: 20%. With `C=C1CN=C(N(C(C)=O)c2ccccn2)S1` the inhibition was “inactive”. With `FC(F)(F)c1ccnc(-c2cccc3ccnn23)c1` the inhibition was inconclusive: 17%. With `COc1ccccc1C1CC(c2ccc(Br)cc2)Nc2nc(N)nn21` (centres undefined) the inhibition was inconclusive: 20%. With `O=[N+]([O-])c1ccc(N=Cc2[nH]c3ccc(Br)c(Cl)c3c2O)cc1` the inhibition was inconclusive: 26%. For `O=C(c1cnc(N2CCN(c3ccccn3)CC2)c2ccccc12)N1CCCC1`, the inhibition was inconclusive: 11%. `Cc1cc2c(c(-c3ccc(Cl)cc3)c1)OC(CNC(=O)c1cc[n+]([O-])cc1)C2` (centres undefined) was tested, and the inhibition was “inactive”. For `Cc1ccc(-n2nc(C)c([C@@H]3C=C[C@@H](NS(=O)(=O)c4cccs4)C3)c2C)cc1Cl`, the inhibition was inconclusive: 10%. With `COc1cc2c(cc1OC)C(C(=O)Nc1cnc3ccccc3c1)C(c1cccs1)N(C)C2=O` (centres undefined) the inhibition was inconclusive: 12%. In the case of `O=C1NCC2(CCN(CCc3ccccc3)CC2)O1`, the inhibition is reported as inconclusive: 10%. `O=C(CC(c1ccccc1)c1ccccc1)Nc1ccc(S(=O)(=O)Nc2ncccn2)cc1` was tested, and the inhibition was “inactive”. For `COc1ccc(/C=C2\SC(=O)N(c3ccccc3)C2=O)cc1`, the inhibition was “inactive”. In the case of `CC1CCC(C(=O)NC(C(=O)N2CCc3ccccc3C2)C(C)C)CC1` (centres undefined), the inhibition is reported as “inactive”. For `O=C1NC2=C(CCc3ccccc32)C(c2ccccc2)N1` (centres undefined), the inhibition was inconclusive: 15%. In the case of `COc1cc(CC(=O)N2CCOc3ccc(CN4CCCCC4CO)cc3C2)cc(OC)c1OC` (centres undefined), the inhibition is reported as inconclusive: 11%. In the case of `O=[N+]([O-])c1cc(C=Nc2ncccc2O)c(O)c([N+](=O)[O-])c1`, the inhibition is reported as inconclusive: 17%.
